# Reference: the supplement of paper PMC10849652
# By UniProt entry, the sequences of proteins in these tests, tags left out. Where a name states a change or a piece, a line headed by the entry shows the natural chain unless it says otherwise.
# UniProt O00505, whole entry, looked up: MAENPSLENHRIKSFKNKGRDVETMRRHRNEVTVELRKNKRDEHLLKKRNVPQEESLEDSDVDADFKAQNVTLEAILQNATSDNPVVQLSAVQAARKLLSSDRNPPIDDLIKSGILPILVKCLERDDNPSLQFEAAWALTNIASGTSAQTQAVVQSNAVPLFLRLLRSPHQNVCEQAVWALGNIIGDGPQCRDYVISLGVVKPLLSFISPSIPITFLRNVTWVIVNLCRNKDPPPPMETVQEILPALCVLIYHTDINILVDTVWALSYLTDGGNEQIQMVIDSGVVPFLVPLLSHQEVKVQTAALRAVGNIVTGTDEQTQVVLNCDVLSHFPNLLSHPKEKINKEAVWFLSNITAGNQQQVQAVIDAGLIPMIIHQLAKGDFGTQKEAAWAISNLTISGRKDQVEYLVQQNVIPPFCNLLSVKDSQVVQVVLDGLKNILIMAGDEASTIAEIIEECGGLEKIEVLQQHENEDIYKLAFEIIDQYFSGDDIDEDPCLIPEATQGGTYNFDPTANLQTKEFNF
# UniProt Q4G0J3: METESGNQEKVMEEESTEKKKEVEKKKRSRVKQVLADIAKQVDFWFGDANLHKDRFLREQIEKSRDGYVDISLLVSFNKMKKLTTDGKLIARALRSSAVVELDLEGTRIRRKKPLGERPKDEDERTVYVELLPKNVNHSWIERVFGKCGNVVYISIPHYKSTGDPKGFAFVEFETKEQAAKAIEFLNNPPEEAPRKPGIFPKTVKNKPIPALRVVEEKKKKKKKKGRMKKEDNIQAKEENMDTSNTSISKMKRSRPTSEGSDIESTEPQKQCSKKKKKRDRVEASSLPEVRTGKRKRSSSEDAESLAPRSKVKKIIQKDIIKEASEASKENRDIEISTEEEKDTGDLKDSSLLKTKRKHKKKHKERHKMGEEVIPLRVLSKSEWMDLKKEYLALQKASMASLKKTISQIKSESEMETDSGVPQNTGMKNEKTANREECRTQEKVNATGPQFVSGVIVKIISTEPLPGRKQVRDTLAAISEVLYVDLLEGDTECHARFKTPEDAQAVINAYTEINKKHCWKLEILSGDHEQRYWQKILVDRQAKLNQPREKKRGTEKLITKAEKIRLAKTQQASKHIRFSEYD
# UniProt O43813, whole entry, looked up: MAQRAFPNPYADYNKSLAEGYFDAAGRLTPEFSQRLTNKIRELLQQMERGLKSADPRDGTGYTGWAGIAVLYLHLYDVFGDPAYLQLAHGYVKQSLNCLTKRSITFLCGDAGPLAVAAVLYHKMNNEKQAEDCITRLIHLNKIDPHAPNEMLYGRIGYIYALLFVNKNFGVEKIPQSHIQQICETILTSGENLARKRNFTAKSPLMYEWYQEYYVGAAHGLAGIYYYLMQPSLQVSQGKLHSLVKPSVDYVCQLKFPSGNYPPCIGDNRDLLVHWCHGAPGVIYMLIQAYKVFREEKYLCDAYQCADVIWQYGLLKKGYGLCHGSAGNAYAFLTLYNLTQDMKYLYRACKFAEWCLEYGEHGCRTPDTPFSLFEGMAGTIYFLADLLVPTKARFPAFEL
# UniProt Q9NS87: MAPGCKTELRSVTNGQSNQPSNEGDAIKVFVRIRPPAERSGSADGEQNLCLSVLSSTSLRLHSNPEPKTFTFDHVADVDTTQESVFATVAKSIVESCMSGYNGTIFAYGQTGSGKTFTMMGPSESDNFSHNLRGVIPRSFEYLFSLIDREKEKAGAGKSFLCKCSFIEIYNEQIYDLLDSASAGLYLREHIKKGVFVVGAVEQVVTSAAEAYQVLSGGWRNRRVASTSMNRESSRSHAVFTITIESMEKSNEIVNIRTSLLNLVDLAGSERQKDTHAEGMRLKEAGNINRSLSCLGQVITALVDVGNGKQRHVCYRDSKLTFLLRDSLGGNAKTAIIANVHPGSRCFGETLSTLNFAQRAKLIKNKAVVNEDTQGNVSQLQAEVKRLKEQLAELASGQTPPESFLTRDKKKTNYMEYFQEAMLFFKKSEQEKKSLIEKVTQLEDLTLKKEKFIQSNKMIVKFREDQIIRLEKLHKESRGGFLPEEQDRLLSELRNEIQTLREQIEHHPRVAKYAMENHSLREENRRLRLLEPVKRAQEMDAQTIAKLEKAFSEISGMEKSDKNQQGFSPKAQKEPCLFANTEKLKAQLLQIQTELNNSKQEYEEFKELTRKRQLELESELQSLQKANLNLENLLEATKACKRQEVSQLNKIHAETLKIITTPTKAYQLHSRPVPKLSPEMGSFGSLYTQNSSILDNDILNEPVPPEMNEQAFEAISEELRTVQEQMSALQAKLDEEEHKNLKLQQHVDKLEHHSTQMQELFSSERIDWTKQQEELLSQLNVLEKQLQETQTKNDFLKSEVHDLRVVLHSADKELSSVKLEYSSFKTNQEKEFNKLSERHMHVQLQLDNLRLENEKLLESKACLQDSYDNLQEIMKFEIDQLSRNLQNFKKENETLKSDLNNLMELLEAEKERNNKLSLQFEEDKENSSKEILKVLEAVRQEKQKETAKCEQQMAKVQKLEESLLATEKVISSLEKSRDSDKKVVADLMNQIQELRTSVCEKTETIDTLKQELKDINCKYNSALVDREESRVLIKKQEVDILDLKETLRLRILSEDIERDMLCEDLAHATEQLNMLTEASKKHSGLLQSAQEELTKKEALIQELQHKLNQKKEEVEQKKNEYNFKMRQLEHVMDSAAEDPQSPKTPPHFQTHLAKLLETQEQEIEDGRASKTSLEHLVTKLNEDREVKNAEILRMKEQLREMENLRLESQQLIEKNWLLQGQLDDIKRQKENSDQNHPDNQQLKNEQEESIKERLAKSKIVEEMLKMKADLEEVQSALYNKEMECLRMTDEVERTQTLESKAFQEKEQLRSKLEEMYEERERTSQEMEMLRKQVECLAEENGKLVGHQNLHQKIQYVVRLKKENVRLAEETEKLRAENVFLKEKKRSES
# UniProt Q13601: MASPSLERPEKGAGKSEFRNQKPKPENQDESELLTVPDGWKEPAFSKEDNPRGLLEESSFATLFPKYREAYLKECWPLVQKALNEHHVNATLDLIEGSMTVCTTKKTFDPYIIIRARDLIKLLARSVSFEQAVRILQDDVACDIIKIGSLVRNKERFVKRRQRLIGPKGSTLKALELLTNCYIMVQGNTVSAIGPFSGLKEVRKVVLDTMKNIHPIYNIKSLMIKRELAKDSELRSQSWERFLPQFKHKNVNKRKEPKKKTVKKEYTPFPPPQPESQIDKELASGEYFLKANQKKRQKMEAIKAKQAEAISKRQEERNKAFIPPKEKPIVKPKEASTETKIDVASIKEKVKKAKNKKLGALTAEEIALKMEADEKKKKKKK
# UniProt Q07866: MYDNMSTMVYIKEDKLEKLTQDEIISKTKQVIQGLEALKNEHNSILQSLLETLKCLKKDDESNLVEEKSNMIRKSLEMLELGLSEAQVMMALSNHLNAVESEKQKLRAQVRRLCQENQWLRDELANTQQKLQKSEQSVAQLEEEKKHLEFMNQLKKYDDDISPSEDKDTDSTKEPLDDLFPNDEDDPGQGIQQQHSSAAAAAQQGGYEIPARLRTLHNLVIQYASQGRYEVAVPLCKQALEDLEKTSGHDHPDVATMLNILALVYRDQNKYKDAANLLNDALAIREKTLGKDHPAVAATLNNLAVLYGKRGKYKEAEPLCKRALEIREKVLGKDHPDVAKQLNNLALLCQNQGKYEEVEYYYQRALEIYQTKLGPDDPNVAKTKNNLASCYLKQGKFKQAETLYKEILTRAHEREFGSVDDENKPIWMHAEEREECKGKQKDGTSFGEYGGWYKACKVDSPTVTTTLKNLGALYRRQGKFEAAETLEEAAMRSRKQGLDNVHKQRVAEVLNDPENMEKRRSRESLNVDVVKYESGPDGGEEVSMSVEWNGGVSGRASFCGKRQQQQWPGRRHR
# UniProt Q53H82: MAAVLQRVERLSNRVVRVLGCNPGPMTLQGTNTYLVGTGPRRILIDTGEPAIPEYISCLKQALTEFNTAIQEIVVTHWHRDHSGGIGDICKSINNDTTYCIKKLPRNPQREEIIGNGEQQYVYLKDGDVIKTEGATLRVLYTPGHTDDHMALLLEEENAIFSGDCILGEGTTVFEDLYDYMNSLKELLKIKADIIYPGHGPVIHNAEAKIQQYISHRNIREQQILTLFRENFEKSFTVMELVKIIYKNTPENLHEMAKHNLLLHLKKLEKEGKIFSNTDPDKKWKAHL
# UniProt Q9P2J5: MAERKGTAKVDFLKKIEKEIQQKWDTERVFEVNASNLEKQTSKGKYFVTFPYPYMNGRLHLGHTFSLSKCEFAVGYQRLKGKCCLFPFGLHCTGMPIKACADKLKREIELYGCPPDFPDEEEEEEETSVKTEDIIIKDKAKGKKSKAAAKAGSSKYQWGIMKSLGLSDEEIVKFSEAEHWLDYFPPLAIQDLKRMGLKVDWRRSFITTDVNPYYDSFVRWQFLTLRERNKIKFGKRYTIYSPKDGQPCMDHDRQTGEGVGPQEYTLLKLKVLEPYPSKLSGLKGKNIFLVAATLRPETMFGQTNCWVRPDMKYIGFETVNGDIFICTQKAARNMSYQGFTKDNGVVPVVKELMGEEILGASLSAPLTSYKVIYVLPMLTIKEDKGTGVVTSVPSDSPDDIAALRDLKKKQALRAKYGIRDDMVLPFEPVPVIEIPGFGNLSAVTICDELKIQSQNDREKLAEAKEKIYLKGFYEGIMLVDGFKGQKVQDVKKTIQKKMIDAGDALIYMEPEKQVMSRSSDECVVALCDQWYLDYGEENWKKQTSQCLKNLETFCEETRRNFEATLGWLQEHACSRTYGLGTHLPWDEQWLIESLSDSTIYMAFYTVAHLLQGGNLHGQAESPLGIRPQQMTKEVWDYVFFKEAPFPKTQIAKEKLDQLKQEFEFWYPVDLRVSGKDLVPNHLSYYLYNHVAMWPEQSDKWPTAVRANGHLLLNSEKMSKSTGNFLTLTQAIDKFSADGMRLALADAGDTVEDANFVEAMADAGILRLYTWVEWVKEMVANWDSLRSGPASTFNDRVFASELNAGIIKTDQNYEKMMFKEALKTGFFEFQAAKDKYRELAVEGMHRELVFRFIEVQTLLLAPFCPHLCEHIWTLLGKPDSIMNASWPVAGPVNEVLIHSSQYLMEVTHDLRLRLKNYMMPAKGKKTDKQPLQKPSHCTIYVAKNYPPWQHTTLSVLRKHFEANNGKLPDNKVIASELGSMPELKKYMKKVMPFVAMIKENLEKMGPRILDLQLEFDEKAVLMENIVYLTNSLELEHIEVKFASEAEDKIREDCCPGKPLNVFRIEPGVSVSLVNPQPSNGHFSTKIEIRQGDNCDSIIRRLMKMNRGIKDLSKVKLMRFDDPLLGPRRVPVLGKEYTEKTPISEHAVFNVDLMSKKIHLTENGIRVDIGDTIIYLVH
# UniProt Q9Y448: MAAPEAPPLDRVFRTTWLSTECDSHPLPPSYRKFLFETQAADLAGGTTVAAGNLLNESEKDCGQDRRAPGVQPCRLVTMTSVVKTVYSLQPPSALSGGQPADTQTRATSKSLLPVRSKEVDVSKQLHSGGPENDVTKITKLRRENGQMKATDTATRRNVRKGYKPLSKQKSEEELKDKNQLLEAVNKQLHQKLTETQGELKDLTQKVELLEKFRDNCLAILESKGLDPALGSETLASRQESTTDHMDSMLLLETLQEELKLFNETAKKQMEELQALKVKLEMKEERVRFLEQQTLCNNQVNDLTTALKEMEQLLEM
# UniProt Q96EK9: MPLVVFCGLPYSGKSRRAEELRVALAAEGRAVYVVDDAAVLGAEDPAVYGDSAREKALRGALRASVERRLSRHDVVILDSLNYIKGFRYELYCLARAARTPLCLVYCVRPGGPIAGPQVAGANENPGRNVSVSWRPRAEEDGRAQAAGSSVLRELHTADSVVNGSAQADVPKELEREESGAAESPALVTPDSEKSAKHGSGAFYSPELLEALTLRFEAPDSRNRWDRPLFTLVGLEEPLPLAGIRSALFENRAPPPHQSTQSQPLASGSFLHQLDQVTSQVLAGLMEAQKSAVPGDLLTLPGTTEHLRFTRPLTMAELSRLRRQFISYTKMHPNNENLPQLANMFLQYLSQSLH
# UniProt P11279: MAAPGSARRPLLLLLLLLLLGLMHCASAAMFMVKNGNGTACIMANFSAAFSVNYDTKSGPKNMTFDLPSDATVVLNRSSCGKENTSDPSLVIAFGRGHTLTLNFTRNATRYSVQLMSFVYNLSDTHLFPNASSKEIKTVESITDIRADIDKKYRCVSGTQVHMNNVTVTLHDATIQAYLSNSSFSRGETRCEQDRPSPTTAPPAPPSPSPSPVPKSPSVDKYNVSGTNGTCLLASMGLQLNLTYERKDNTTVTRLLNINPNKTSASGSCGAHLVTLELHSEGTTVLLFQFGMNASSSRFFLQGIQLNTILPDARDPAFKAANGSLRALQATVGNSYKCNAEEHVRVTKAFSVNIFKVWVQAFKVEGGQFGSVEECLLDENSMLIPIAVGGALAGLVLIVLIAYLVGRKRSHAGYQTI
# This is one part of the list.
# Tests used:
# Assay in all cases: log2 fold change, soluble protein after heating vs DMSO (PISA); higher = thermal stabilisation; K562 lysate, 10 uM; active = over 0.2 and 3.5 SD of the protein, either way, in both replicates (recomputed)
# nilotinib = compound: Cc1cn(-c2cc(NC(=O)c3ccc(C)c(Nc4nccc(-c5cccnc5)n4)c3)cc(C(F)(F)F)c2)cn1 [nilotinib]
# Method in brief: (§1)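 The values are log-two fold changes in thermal stability compared with solvent controls and come from duplicates. They were obtained by TMTpro 16plex LC-MS/MS, with channel sums equalised, on the supernatant after 21,000xg for 90 min. That supernatant came from crude K562 extract at 1 mg/mL protein treated with 10 μM compound for 30 min, heated for 3 min across 48°C-58°C, pooled and brought to 0.5% NP-40 at 4°C.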
# [1] = compound: Cc1nc(Nc2n[nH]c3c2CN(C(=O)N[C@H](CN(C)C)c2ccccc2)C3(C)C)c2sccc2n1
# Method in brief: as §1
# dasatinib = compound: Cc1nc(Nc2ncc(C(=O)Nc3c(C)cccc3Cl)s2)cc(N2CCN(CCO)CC2)n1 [dasatinib]
# Method in brief: as §1
# [2] = compound: Cc1ncc(-c2ccnc(Nc3ccc(S(C)(=O)=O)cc3)n2)n1C(C)C
# Method in brief: as §1
# [3] = compound: Cn1cc(-c2ccc3c(c2)CCN3C(=O)Cc2cccc(C(F)(F)F)c2)c2c(N)ncnc21
# Method in brief: as §1
# quisinostat = compound: Cn1cc(CNCC2CCN(c3ncc(C(=O)NO)cn3)CC2)c2ccccc21 [quisinostat]
# Method in brief: as §1
# tipifarnib = compound: Cn1cncc1[C@@](N)(c1ccc(Cl)cc1)c1ccc2c(c1)c(-c1cccc(Cl)c1)cc(=O)n2C [tipifarnib]
# Method in brief: as §1
# [4] = compound: NC(=O)Nc1cc(-c2cccc(F)c2)sc1C(=O)N[C@H]1CCCNC1
# Method in brief: as §1
# [5] = compound: NC(=O)c1cnc(N[C@@H]2CCCC[C@@H]2N)nc1Nc1cccc(-n2nccn2)c1
# Method in brief: as §1
# [6] = compound: NC1(c2ccc(-c3nc4ccn5c(=O)[nH]nc5c4cc3-c3ccccc3)cc2)CCC1
# Method in brief: as §1
# [7] = compound: NCC(=O)Nc1ccc(-n2nc(C(F)(F)F)cc2-c2ccc3c(ccc4ccccc43)c2)cc1
# Method in brief: as §1
# vorinostat = compound: O=C(CCCCCCC(=O)Nc1ccccc1)NO [vorinostat]
# Method in brief: as §1
# silmitasertib = compound: O=C(O)c1ccc2c(c1)nc(Nc1cccc(Cl)c1)c1ccncc12 [silmitasertib]
# Method in brief: as §1
# [8] = compound: O=C1NC(=O)C(c2cnc3ccccn23)=C1c1cn2c3c(cc(F)cc13)CN(C(=O)N1CCCCC1)CC2
# Method in brief: as §1
# entospletinib = compound: c1cn2cc(-c3ccc4cn[nH]c4c3)nc(Nc3ccc(N4CCOCC4)cc3)c2n1 [entospletinib]
# Method in brief: as §1
Target,log2 fold change (nilotinib),log2 fold change [1],log2 fold change (dasatinib),log2 fold change [2],log2 fold change [3],log2 fold change (quisinostat),log2 fold change (tipifarnib),log2 fold change [4],log2 fold change [5],log2 fold change [6],log2 fold change [7],log2 fold change (vorinostat),log2 fold change (silmitasertib),log2 fold change [8],log2 fold change (entospletinib)
KPNA3 (UniProt O00505),inactive: -0.032,inactive: 0.037,inactive: -0.023,inactive: 0.028,inactive: 0.009,inactive: 0.027,inactive: -0.022,inactive: 0.042,inactive: 0.039,inactive: 0.028,inactive: 0.048,inactive: 0.008,inactive: -0.05,inactive: 0.001,inactive: -0.016
KNTC1 (UniProt P50748),inactive: -0.019,inactive: 0.011,inactive: -0.046,inactive: -0.006,inactive: 0.029,inactive: -0.047,inactive: -0.013,inactive: 0.025,inactive: 0.015,inactive: -0.036,inactive: 0.001,inactive: -0.225,inactive: 0.029,inactive: -0.022,inactive: 0.03
LARP7 isoform 3 (UniProt Q4G0J3),inactive: -0.015,inactive: -0.012,inactive: -0.008,inactive: 0.013,inactive: 0.021,inactive: 0.031,inactive: 0.003,inactive: 0.016,inactive: 0.015,inactive: -0.012,inactive: 0.039,inactive: 0.071,inactive: 0.02,inactive: -0.009,inactive: 0.014
KLHDC3 (UniProt Q9BQ90),inactive: 0.079,inactive: 0.058,inactive: 0.038,inactive: -0.119,inactive: 0.018,inactive: -0.087,inactive: -0.003,inactive: 0.057,inactive: 0.007,inactive: -0.148,inactive: -0.098,inactive: -0.026,inactive: 0.116,inactive: 0.013,inactive: 0.103
LANCL1 (UniProt O43813),inactive: 0.013,inactive: -0.008,inactive: -0.025,inactive: 0.023,inactive: 0.025,inactive: 0.001,inactive: 0.016,inactive: -0.016,inactive: 0.001,inactive: 0.002,inactive: -0.074,inactive: -0.029,inactive: -0.005,inactive: -0.019,inactive: 0.005
KIF15 (UniProt Q9NS87),inactive: -0.038,inactive: -0.003,inactive: -0.03,inactive: 0.052,inactive: 0.044,inactive: -0.058,inactive: 0.008,inactive: 0.003,inactive: 0.011,inactive: 0,inactive: 0.017,inactive: -0.136,inactive: 0.02,inactive: 0.004,inactive: -0.024
LARP1 (UniProt Q6PKG0),inactive: 0.005,inactive: -0.009,inactive: 0,inactive: -0.025,inactive: 0.026,inactive: 0.031,inactive: 0.009,inactive: 0.017,inactive: 0.002,inactive: 0.007,inactive: -0.007,inactive: -0.003,inactive: -0.006,inactive: -0.013,inactive: 0.023
KRR1 (UniProt Q13601),inactive: -0.057,inactive: 0.058,inactive: -0.014,inactive: 0.006,inactive: 0.012,active: -0.336,inactive: -0.039,inactive: 0.018,inactive: 0.022,inactive: -0.08,inactive: 0.013,inactive: 0.02,inactive: 0.013,inactive: 0.101,inactive: 0.011
KLC1 isoform 6 (UniProt Q07866),inactive: 0.009,inactive: -0.017,inactive: -0.021,inactive: -0.009,inactive: 0.009,inactive: -0.014,inactive: -0.005,inactive: -0.014,inactive: 0.002,inactive: 0.017,inactive: 0.024,active: -0.231,inactive: -0.004,inactive: -0.034,inactive: 0.013
LACTB2 (UniProt Q53H82),inactive: -0.011,inactive: 0.022,inactive: 0.016,inactive: 0.004,inactive: -0.021,inactive: 0.027,inactive: 0.015,inactive: -0.026,inactive: -0.009,inactive: -0.001,inactive: -0.004,inactive: 0.084,inactive: -0.02,inactive: -0.007,inactive: -0.011
LARS (UniProt Q9P2J5),inactive: 0.012,inactive: 0.003,inactive: -0.065,inactive: -0.012,inactive: 0.038,inactive: -0.005,inactive: -0.006,inactive: 0.034,inactive: 0,inactive: -0.024,inactive: -0.021,active: -0.399,inactive: 0.052,inactive: -0.003,inactive: 0.012
KIFBP (UniProt Q96EK5),inactive: 0.007,inactive: 0.013,inactive: -0.038,inactive: -0.009,inactive: 0.025,inactive: -0.006,inactive: 0.02,inactive: 0.031,inactive: -0.003,inactive: 0.019,inactive: 0.019,inactive: -0.176,inactive: 0.104,inactive: -0.049,inactive: -0.009
KNSTRN (UniProt Q9Y448),inactive: 0.012,inactive: 0.03,inactive: -0.048,inactive: -0.071,inactive: -0.005,inactive: 0.165,inactive: 0.033,inactive: -0.02,inactive: -0.002,inactive: -0.01,inactive: -0.018,inactive: -0.054,inactive: 0,inactive: 0.057,inactive: 0.02
KTI12 (UniProt Q96EK9),inactive: -0.01,inactive: 0.006,inactive: -0.062,inactive: 0.017,inactive: 0.054,inactive: -0.018,inactive: -0.007,inactive: 0,inactive: 0.023,inactive: 0.042,inactive: -0.016,inactive: -0.119,inactive: 0.076,inactive: 0.049,inactive: -0.057
KIAA1522 isoform 2 (UniProt Q9P206),inactive: 0.031,inactive: -0.026,inactive: -0.02,inactive: -0.005,inactive: -0.028,inactive: 0.014,inactive: 0.036,inactive: -0.041,inactive: 0.021,inactive: 0,inactive: -0.048,inactive: -0.144,inactive: -0.01,inactive: -0.024,inactive: 0.019
L1RE1 (UniProt Q9UN81),inactive: -0.029,inactive: 0.014,inactive: -0.004,inactive: 0.005,inactive: 0.012,inactive: -0.022,inactive: 0.006,inactive: 0.026,inactive: -0.021,inactive: -0.045,inactive: 0.052,inactive: 0.138,inactive: 0.006,inactive: 0.054,inactive: 0.058
KIF22 (UniProt Q14807),inactive: 0.041,inactive: -0.021,inactive: -0.023,inactive: -0.029,inactive: -0.055,active: -0.451,inactive: -0.015,inactive: 0.081,inactive: -0.023,inactive: -0.171,inactive: 0.069,inactive: 0.158,inactive: -0.128,inactive: 0.156,inactive: 0.001
KLHL41 (UniProt O60662),inactive: -0.037,inactive: 0.035,inactive: -0.027,inactive: -0.166,inactive: -0.079,inactive: -0.469,inactive: -0.066,inactive: 0.066,inactive: 0.036,inactive: -0.182,inactive: 0.099,inactive: 0.156,inactive: -0.1,inactive: 0.329,inactive: -0.001
LAMP1 (UniProt P11279),inactive: 0.021,inactive: -0.033,inactive: -0.058,inactive: 0.002,inactive: -0.036,inactive: -0.113,inactive: -0.012,inactive: 0.016,inactive: -0.003,inactive: -0.017,inactive: 0.007,inactive: 0.095,inactive: -0.009,inactive: -0.05,inactive: -0.004

# Quoted from the listing:
# KIFBP (UniProt Q96EK5) | log2 fold change (vorinostat): inactive: -0.176
# KNTC1 (UniProt P50748) | log2 fold change [8]: inactive: -0.022
